Results published in the supplement of paper PMC10849652.
Some of the results follow.

Protein sequences, listed by entry. Tags and fused reporters are not part of them. Lines headed by an entry give the natural chain unless they say otherwise; changes in a name come on top.
UniProt O60832: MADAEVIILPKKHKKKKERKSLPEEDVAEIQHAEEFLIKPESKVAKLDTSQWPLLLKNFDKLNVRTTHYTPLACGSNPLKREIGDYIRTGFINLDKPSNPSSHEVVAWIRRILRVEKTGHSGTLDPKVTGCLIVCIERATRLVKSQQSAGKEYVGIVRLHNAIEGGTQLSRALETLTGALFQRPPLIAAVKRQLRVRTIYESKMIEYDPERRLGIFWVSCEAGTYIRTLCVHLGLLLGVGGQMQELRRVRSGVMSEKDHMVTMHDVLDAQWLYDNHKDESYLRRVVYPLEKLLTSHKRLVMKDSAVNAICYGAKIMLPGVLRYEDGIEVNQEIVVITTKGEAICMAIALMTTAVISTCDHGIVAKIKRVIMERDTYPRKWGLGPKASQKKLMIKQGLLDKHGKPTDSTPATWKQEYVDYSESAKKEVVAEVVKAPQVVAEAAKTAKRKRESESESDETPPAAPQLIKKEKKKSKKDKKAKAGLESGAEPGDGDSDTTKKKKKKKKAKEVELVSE
UniProt Q15398: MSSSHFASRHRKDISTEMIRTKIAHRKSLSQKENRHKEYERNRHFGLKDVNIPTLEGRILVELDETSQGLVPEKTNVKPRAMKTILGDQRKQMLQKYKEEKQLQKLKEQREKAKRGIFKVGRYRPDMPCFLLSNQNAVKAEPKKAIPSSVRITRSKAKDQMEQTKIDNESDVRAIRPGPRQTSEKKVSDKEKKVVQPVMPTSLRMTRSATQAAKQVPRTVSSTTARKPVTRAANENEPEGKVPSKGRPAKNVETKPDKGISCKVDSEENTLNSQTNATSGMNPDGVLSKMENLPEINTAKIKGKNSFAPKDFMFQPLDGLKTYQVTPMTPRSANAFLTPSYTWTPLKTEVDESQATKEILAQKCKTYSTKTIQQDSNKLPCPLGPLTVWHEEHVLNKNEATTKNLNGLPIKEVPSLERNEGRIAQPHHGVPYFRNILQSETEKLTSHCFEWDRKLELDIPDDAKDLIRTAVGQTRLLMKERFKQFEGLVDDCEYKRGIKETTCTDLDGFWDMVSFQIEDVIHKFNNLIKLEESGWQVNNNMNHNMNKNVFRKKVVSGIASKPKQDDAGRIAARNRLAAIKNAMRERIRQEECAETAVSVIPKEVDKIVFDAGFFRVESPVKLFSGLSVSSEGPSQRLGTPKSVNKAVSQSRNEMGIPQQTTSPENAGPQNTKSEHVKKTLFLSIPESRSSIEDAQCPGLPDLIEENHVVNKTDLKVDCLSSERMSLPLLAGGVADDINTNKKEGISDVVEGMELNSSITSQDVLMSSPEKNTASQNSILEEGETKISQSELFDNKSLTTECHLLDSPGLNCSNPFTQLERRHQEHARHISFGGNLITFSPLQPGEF
UniProt Q9NR28: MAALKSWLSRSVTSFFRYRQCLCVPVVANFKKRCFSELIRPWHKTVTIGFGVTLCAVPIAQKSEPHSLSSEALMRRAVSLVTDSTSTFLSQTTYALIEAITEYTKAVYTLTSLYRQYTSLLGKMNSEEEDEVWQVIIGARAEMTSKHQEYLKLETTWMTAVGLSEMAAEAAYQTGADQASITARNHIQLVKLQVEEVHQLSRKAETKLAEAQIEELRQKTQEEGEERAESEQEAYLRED
UniProt P10515, whole entry, looked up: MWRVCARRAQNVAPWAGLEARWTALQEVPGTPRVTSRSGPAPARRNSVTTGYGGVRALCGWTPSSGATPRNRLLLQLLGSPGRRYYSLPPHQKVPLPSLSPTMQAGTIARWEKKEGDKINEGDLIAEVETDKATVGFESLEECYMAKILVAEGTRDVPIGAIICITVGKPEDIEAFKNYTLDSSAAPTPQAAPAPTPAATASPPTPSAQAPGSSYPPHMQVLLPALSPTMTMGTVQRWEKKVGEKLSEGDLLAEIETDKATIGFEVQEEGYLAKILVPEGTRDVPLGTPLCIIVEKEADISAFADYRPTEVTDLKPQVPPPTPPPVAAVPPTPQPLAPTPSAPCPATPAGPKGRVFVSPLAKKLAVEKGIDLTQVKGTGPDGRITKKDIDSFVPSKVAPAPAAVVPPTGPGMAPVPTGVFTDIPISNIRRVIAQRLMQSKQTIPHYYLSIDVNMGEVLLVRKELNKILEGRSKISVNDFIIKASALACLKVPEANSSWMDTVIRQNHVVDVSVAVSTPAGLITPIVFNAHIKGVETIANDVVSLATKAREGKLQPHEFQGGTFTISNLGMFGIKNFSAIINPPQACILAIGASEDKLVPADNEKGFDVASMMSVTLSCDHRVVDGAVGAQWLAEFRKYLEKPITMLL
UniProt Q8WYQ5: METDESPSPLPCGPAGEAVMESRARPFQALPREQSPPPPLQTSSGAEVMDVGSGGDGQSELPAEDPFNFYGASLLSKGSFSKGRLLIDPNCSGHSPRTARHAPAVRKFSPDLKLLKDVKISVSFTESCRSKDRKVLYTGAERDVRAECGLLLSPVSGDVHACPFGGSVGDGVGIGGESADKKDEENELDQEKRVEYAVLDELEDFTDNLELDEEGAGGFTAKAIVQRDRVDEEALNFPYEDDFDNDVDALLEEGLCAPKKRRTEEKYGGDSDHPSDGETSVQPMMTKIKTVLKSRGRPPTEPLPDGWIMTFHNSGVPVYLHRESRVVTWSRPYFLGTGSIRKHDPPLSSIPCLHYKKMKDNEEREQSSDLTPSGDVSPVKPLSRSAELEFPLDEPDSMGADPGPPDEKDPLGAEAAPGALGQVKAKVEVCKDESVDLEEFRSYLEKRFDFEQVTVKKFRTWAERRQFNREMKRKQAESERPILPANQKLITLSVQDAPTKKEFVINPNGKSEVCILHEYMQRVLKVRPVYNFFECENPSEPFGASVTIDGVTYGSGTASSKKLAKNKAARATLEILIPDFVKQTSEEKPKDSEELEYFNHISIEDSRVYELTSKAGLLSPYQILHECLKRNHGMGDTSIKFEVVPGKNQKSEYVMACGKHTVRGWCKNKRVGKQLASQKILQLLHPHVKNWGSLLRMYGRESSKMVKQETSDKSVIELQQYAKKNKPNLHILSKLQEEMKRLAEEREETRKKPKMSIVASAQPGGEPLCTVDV
UniProt O95865: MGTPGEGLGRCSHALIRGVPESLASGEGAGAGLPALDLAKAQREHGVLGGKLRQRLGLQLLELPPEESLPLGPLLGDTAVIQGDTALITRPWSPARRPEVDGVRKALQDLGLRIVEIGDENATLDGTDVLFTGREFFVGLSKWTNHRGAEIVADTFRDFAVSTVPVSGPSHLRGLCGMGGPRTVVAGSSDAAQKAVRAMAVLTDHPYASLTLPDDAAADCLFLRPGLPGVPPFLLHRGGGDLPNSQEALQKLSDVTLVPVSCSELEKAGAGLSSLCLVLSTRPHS
UniProt P35659: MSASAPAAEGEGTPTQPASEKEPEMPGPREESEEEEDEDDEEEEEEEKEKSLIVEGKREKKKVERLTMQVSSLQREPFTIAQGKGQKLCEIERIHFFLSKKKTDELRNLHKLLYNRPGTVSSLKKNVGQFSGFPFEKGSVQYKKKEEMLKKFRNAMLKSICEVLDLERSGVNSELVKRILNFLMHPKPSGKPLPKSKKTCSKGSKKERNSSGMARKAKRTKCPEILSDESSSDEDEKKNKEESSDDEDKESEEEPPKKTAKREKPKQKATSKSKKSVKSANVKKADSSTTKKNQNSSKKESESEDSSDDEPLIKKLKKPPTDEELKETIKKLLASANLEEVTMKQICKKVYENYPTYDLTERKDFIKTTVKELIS
UniProt Q16854: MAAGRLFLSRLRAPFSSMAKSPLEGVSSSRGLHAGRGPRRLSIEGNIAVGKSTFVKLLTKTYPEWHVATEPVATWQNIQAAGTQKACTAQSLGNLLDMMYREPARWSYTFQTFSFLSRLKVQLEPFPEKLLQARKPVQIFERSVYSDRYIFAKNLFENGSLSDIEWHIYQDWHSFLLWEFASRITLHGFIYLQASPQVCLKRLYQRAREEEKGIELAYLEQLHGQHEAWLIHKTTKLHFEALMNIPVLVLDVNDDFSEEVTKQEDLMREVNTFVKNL
UniProt Q08495: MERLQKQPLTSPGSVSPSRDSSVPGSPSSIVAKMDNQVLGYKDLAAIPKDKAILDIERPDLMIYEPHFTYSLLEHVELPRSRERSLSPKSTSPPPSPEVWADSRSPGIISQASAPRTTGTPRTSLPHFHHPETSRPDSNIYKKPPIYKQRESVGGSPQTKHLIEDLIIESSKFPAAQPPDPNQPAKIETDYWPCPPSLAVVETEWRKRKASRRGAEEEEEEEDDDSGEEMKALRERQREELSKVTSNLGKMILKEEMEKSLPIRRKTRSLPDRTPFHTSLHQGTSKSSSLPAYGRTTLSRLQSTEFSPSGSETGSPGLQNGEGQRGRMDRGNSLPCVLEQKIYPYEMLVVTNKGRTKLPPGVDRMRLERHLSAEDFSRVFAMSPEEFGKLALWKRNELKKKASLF
UniProt Q9Y394: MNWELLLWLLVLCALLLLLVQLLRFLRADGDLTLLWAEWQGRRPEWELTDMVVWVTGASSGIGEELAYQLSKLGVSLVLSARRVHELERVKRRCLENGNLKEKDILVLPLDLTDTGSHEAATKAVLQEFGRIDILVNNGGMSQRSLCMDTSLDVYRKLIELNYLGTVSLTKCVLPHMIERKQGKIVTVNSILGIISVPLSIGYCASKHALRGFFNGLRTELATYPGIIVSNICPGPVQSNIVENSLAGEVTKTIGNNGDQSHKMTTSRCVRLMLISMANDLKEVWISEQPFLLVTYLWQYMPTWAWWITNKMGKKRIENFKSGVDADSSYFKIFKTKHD
UniProt Q9UJV9: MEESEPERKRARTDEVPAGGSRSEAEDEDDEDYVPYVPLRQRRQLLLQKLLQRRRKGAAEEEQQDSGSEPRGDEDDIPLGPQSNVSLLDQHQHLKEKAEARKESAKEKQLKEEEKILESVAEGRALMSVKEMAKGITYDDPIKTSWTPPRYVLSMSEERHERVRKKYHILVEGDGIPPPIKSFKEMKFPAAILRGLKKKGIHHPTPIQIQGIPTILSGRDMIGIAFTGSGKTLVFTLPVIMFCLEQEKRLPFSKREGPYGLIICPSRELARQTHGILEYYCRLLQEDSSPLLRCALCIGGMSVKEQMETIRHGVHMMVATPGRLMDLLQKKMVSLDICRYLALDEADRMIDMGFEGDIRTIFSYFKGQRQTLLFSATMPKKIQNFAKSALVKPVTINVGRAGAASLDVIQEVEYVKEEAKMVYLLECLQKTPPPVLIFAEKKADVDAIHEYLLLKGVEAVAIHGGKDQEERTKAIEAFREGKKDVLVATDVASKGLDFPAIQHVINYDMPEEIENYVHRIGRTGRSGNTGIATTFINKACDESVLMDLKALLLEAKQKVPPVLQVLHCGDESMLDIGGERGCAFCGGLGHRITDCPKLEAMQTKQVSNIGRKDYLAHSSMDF
UniProt Q13574: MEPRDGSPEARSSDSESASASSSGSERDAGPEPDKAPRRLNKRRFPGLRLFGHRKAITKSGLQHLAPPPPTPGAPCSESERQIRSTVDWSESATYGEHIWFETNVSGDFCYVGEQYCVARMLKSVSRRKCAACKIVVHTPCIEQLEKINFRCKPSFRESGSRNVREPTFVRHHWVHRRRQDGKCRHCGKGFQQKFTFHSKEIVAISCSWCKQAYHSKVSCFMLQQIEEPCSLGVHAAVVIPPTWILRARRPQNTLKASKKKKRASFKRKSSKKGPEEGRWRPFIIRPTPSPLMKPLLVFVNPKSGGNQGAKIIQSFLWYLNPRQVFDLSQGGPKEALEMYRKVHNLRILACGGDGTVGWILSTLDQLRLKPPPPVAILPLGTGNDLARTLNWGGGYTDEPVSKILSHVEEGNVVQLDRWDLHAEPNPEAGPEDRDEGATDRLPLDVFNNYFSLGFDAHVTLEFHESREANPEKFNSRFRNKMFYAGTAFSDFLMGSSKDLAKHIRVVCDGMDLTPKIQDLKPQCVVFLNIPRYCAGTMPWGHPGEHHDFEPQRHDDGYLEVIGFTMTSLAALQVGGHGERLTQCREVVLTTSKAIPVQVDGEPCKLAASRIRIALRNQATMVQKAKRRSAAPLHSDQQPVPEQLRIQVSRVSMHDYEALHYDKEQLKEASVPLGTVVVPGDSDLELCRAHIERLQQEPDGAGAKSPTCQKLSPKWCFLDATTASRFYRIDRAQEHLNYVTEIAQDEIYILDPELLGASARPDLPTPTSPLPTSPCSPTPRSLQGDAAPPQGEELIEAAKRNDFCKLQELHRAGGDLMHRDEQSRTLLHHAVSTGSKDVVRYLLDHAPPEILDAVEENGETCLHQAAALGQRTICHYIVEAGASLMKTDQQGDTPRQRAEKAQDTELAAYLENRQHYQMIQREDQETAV
UniProt Q96HY6: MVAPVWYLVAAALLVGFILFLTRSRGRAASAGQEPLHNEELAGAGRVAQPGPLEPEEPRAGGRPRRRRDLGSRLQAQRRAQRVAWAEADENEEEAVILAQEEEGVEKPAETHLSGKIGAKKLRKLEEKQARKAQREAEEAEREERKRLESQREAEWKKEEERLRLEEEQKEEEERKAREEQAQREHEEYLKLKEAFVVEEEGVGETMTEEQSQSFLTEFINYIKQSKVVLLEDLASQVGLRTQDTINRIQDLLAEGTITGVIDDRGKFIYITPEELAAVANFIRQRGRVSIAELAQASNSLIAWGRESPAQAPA

Columns and labels:
Test in all cases: log2 fold change, soluble protein after heating vs DMSO (PISA); higher = thermal stabilisation; K562 cells, 10 uM, 30 min; active = over 0.2 and 3.5 SD of the protein, either way, in both replicates (recomputed)
[1] = compound: CC[C@@H]1C(=O)N(C)c2cnc(Nc3ccc(C(=O)NC4CCN(C)CC4)cc3OC)nc2N1C1CCCC1
Method in brief: (§1)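 K562 cells at 2×10^6 cells/mL were treated for 30 min with 10 μM compound, and aliquots were heated for 3 min over 48°C-58°C before pooling. Extraction used PBS with 0.5% NP-40 at 4°C, and soluble protein was the supernatant after 21,000xg for 90 min, measured by TMTpro 16plex LC-MS/MS with channel sums equalised. Thermal stability values, relative to control samples and from duplicates, are log2 fold changes.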

volasertib = compound: CC[C@@H]1C(=O)N(C)c2cnc(Nc3ccc(C(=O)N[C@H]4CC[C@H](N5CCN(CC6CC6)CC5)CC4)cc3OC)nc2N1C(C)C [volasertib]
Method in brief: as §1

[2] = compound: CC[C@H](C)N1C=C(C2=C(C=C(C=C21)C3=CN=C(C=C3)N4CCNCC4)C(=O)NCC5=C(C=C(NC5=O)C)C)C
Method in brief: as §1

epoxomicin = compound: CC[C@H](C)[C@@H](C(=O)N[C@@H]([C@@H](C)O)C(=O)N[C@@H](CC(C)C)C(=O)[C@]1(CO1)C)NC(=O)[C@H]([C@@H](C)CC)N(C)C(=O)C [epoxomicin]
Method in brief: as §1

[3] = compound: CCn1c(C(=O)N(C2CC2)C2CC2)cc2c3c(ncn3C)c(Nc3cc(C)n(C)n3)nc21
Method in brief: as §1

[4] = compound: CCn1cc(-c2ccnc3[nH]c(-c4cccc(CN(C)C)c4)cc23)c(-c2ccc(NC(=O)N(C)C)cc2)n1
Method in brief: as §1

[5] = compound: CN(C)CC(=O)Nc1ccc2[nH]c(=O)c3ccccc3c2c1
Method in brief: as §1

rosiglitazone = compound: CN(CCOC1=CC=C(C=C1)C[C@H]2C(=O)NC(=O)S2)C3=CC=CC=N3 (racemic) [rosiglitazone]
Method in brief: as §1

[6] = compound: CN1C2=C(C3=C1C(=O)N(N=C3)CC4=CC(=CC=C4)N)SC(=C2)S(=O)C
Method in brief: as §1

[7] = compound: CN1CCC(CNc2ccc3ncc(-c4cccc(OC(F)(F)F)c4)n3n2)CC1
Method in brief: as §1

saracatinib = compound: CN1CCN(CCOc2cc(OC3CCOCC3)c3c(Nc4c(Cl)ccc5c4OCO5)ncnc3c2)CC1 [saracatinib]
Method in brief: as §1

sotrastaurin = compound: CN1CCN(c2nc(C3=C(c4c[nH]c5ccccc45)C(=O)NC3=O)c3ccccc3n2)CC1 [sotrastaurin]
Method in brief: as §1

alvocidib = compound: CN1CC[C@H](c2c(O)cc(O)c3c(=O)cc(-c4ccccc4Cl)oc23)[C@H](O)C1 [alvocidib]
Method in brief: as §1

Tubastatin A = compound: CN1CCc2c(c3ccccc3n2Cc2ccc(C(=O)NO)cc2)C1 [Tubastatin A]
Method in brief: as §1

[8] = compound: CNC(=O)C1=CC=CC=C1NC2=NC(=NC=C2Cl)NC3=C(C=C(C=C3)N4CCOCC4)OC
Method in brief: as §1

defactinib = compound: CNC(=O)c1ccc(Nc2ncc(C(F)(F)F)c(NCc3nccnc3N(C)S(C)(=O)=O)n2)cc1 [defactinib]
Method in brief: as §1

rucaparib = compound: CNCc1ccc(-c2[nH]c3cc(F)cc4c3c2CCNC4=O)cc1 [rucaparib]
Method in brief: as §1

[9] = compound: CNc1nc(-c2ccc3c(N)n[nH]c3c2)cc(N2C[C@@H](C(=O)NC3CCCCC3)CC[C@H]2C)n1
Method in brief: as §1

encorafenib = compound: COC(=O)N[C@@H](C)CNc1nccc(-c2cn(C(C)C)nc2-c2cc(Cl)cc(NS(C)(=O)=O)c2F)n1 [encorafenib]
Method in brief: as §1

[10] = compound: COC(=O)[C@H](CCSC)NC(=O)C1=C(C=C(C=C1)NC[C@H](CS)N)C2=CC=CC=C2
Method in brief: as §1

Measured: log2 fold change

DKC1 (UniProt O60832)
inactive: [1] 0.244 | volasertib 0.193 | [2] -0.042 | epoxomicin -0.059 | [3] 0.007 | [4] 0.122 | [5] -0.038 | rosiglitazone -0.095 | [6] 0.144 | [7] 0.237 | saracatinib 0.026 | sotrastaurin 0.022 | alvocidib 0.121 | Tubastatin A -0.007 | [8] -0.013 | defactinib 0.149 | rucaparib 0.228 | [9] -0.004 | encorafenib -0.009 | [10] 0.047

DLGAP5 (UniProt Q15398)
inactive: [1] -0.082 | volasertib -0.222 | [2] 0.064 | epoxomicin -0.019 | [3] -0.076 | [4] -0.015 | [5] 0.062 | rosiglitazone 0.037 | [6] 0.004 | [7] -0.06 | saracatinib -0.047 | sotrastaurin -0.142 | alvocidib 0 | Tubastatin A -0.019 | [8] 0.038 | defactinib -0.086 | rucaparib -0.007 | [9] 0.167 | encorafenib 0.027 | [10] 0.021

DIABLO (UniProt Q9NR28)
inactive: [1] 0.031 | volasertib 0.024 | [2] -0.04 | epoxomicin 0.021 | [3] 0.029 | [4] 0.019 | [5] -0.003 | rosiglitazone -0.006 | [6] -0.063 | [7] 0.14 | saracatinib 0.049 | sotrastaurin 0.052 | alvocidib -0.05 | Tubastatin A -0.023 | [8] -0.058 | defactinib 0.021 | rucaparib -0.048 | [9] 0.009 | encorafenib -0.041 | [10] -0.017

DLAT (UniProt P10515)
inactive: [1] 0.061 | volasertib 0.23 | [2] -0.018 | epoxomicin -0.111 | [3] 0.115 | [4] 0.107 | [5] -0.029 | rosiglitazone -0.091 | [6] 0.143 | [7] 0.118 | saracatinib -0.214 | sotrastaurin -0.161 | alvocidib 0.154 | Tubastatin A 0.177 | [8] 0.013 | defactinib 0.244 | rucaparib 0.107 | [9] 0.038 | encorafenib 0.162 | [10] 0.024

DGCR8 (UniProt Q8WYQ5)
inactive: [1] 0.308 | volasertib -0.039 | [2] 0.031 | epoxomicin -0.247 | [3] 0.033 | [4] 0.184 | [5] -0.108 | rosiglitazone 0.168 | [6] 0.338 | [7] 0.216 | saracatinib -0.115 | sotrastaurin -0.04 | alvocidib 0.169 | Tubastatin A 0.071 | [8] -0.03 | defactinib 0.02 | rucaparib 0.352 | [9] 0.158 | encorafenib 0.221 | [10] -0.051

DDAH2 (UniProt O95865)
inactive: [1] 0.004 | volasertib 0.019 | [2] -0.032 | epoxomicin 0.015 | [3] 0.032 | [4] 0.006 | [5] -0.088 | rosiglitazone 0 | [6] -0.073 | [7] 0.036 | saracatinib 0.084 | sotrastaurin -0.029 | alvocidib 0.019 | Tubastatin A -0.024 | [8] -0.08 | defactinib 0.01 | rucaparib -0.024 | [9] -0.004 | encorafenib -0.05 | [10] 0.051

DEK (UniProt P35659)
inactive: [1] -0.057 | volasertib -0.143 | [2] 0.102 | epoxomicin 0.069 | [3] -0.047 | [4] -0.045 | [5] 0.067 | rosiglitazone 0.04 | [6] 0.019 | [7] -0.153 | saracatinib -0.02 | sotrastaurin -0.044 | alvocidib -0.127 | Tubastatin A 0.022 | [8] -0.022 | defactinib -0.136 | rucaparib -0.014 | [9] -0.003 | encorafenib 0.089 | [10] -0.042

DGUOK (UniProt Q16854)
inactive: [1] 0.012 | volasertib 0.129 | [2] -0.056 | epoxomicin -0.073 | [3] 0.018 | [4] 0.069 | [5] -0.006 | rosiglitazone 0.007 | [6] -0.091 | [7] 0.037 | saracatinib 0.027 | sotrastaurin 0.041 | alvocidib 0.026 | Tubastatin A -0.043 | [8] -0.032 | defactinib 0 | rucaparib -0.033 | [9] -0.04 | encorafenib -0.024 | [10] 0.039

DLG1 isoform 2 (UniProt Q12959)
inactive: [1] -0.187 | volasertib -0.125 | [2] 0.04 | epoxomicin 0.036 | [3] -0.042 | [4] 0.061 | [5] -0.005 | rosiglitazone 0.005 | [6] 0.025 | [7] 0.038 | saracatinib 0.039 | sotrastaurin -0.019 | alvocidib -0.06 | Tubastatin A 0.039 | [8] 0.051 | defactinib -0.085 | rucaparib 0.058 | [9] 0.018 | encorafenib -0.092 | [10] 0.12

DENR (UniProt O43583)
inactive: [1] -0.003 | volasertib 0.127 | [2] -0.041 | epoxomicin 0.012 | [3] 0.025 | [4] -0.055 | [5] -0.056 | rosiglitazone 0.019 | [6] -0.026 | [7] -0.033 | saracatinib 0.053 | sotrastaurin 0.043 | alvocidib 0.033 | Tubastatin A -0.073 | [8] -0.046 | defactinib -0.028 | rucaparib -0.043 | [9] -0.021 | encorafenib -0.01 | [10] 0.048

DMTN (UniProt Q08495)
inactive: [1] -0.058 | volasertib -0.046 | [2] -0.01 | epoxomicin 0.016 | [3] 0.004 | [4] -0.063 | [5] 0.013 | rosiglitazone 0.014 | [6] -0.022 | [7] -0.036 | saracatinib 0.053 | sotrastaurin 0.066 | alvocidib -0.055 | Tubastatin A 0.013 | [8] -0.025 | defactinib -0.06 | rucaparib -0.035 | [9] -0.036 | encorafenib -0.039 | [10] -0.009

DHRS7 (UniProt Q9Y394)
inactive: [1] 0.021 | volasertib 0.088 | [2] -0.042 | epoxomicin 0.032 | [3] 0.034 | [4] 0 | [5] 0.033 | rosiglitazone 0.006 | [6] -0.021 | [7] 0.118 | saracatinib 0.055 | sotrastaurin -0.035 | alvocidib 0.015 | Tubastatin A -0.035 | [8] -0.025 | defactinib -0.06 | rucaparib 0.003 | [9] -0.074 | encorafenib -0.008 | [10] -0.028

DDX41 (UniProt Q9UJV9)
inactive: [1] -0.09 | volasertib -0.011 | [2] -0.002 | epoxomicin 0.096 | [3] -0.005 | [4] -0.035 | [5] -0.041 | rosiglitazone 0.025 | [6] 0.028 | [7] -0.152 | saracatinib -0.14 | sotrastaurin -0.012 | alvocidib 0.012 | Tubastatin A 0.034 | [8] 0.056 | defactinib -0.01 | rucaparib -0.014 | [9] 0.007 | encorafenib 0 | [10] 0.024

DGKZ (UniProt Q13574)
inactive: [1] 0.014 | volasertib -0.038 | [2] 0.005 | epoxomicin 0.083 | [3] 0.003 | [4] 0.087 | [5] 0.083 | rosiglitazone 0.004 | [6] 0.043 | [7] 0.065 | saracatinib 0.027 | sotrastaurin -0.215 | alvocidib -0.039 | Tubastatin A 0.105 | [8] 0.006 | defactinib 0.206 | rucaparib 0.085 | [9] -0.049 | encorafenib -0.026 | [10] 0.092

DDRGK1 (UniProt Q96HY6)
inactive: [1] 0.023 | volasertib -0.024 | [2] -0.048 | epoxomicin 0.066 | [3] 0.003 | [4] 0.02 | [5] -0.068 | rosiglitazone 0.037 | [6] -0.086 | [7] 0.028 | saracatinib 0.092 | sotrastaurin -0.016 | alvocidib -0.013 | Tubastatin A -0.063 | [8] -0.035 | defactinib -0.029 | rucaparib 0.091 | [9] -0.032 | encorafenib -0.002 | [10] 0.08
